Results are given in words; binding and its absence hold for the method and conditions named. Some binding calls cover weakened binding; strength is not graded here. For some of these results: Tags and fused reporters may be left off the sequences shown.

Assay [1] deals with T1, Purified luminal domain LIMP-2 (ld-LIMP2) (UniProt Q14108).
T1 sequence (looked up): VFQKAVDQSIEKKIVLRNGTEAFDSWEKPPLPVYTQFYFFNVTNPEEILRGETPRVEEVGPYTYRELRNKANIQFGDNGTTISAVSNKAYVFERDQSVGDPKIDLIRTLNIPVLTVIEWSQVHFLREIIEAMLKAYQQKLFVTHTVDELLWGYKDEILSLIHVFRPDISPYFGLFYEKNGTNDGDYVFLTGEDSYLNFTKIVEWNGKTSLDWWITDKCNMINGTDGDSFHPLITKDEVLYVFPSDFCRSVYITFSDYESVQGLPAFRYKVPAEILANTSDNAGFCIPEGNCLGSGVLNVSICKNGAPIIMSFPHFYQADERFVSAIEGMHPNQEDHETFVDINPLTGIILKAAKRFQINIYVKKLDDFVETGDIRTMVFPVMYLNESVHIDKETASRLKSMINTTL
Description: in vitro immunoprecipitation with ldLIMP-2 (FIG. 6).

The target of assay [2] is T1, Purified luminal domain LIMP-2 (ld-LIMP2). Description: immunoprecipitation with ldLIMP2 on anti-LIMP2 beads, immunoblot (FIG. 6A). For orientation: Immunoblotting shows a protein as a band on a membrane.
For assay [3] the target is unchanged. Description: in vitro immunoprecipitation with ldLIMP-2 (FIG. 6C).

B1: WT GCase (mature human acid β-glucosidase, 497 amino acids) (enzyme)
chain: ARPCIPKSFGYSSVVCVCNATYCDSFDPPTFPALGTFSRYESTRSGRRMELSMGPIQANHTGTGLLLTLQPEQKFQKVKGFGGAMTDAAALNILALSPPAQNLLLKSYFSEEGIGYNIIRVPMASCDFSIRTYTYADTPDDFQLHNFSLPEEDTKLKIPLIHRALQLAQRPVSLLASPWTSPTWLKTNGAVNGKGSLKGQPGDIYHQTWARYFVKFLDAYAEHKLQFWAVTAENEPSAGLLSGYPFQCLGFTPEHQRDFIARDLGPTLANSTHHNVRLLMLDDQRLLLPHWAKVVLTDPEAAKYVHGIAVHWYLDFLAPAKATLGETHRLFPNTMLFASEACVGSKFWEQSVRLGSWDRGMQYSHSIITNLLYHVVGWTDWNLALNPEGGPNWVRNFVDSPIIVDITKDTFYKQPMFYHLGHFSKFIPEGSQRVGLVASQKNDLDAVALMHPDGSAVVVVLNRSSKDVPLTIKDPAVGFLETISPGYSIHTYLWRRQ
In the case of B1, the binding result in assay [1] and in assay [2] was “binds” each time.

B2: TAD GCase (TKD sequence, amino acids 407-409, changed to TAD) (enzyme)
chain: ARPCIPKSFGYSSVVCVCNATYCDSFDPPTFPALGTFSRYESTRSGRRMELSMGPIQANHTGTGLLLTLQPEQKFQKVKGFGGAMTDAAALNILALSPPAQNLLLKSYFSEEGIGYNIIRVPMASCDFSIRTYTYADTPDDFQLHNFSLPEEDTKLKIPLIHRALQLAQRPVSLLASPWTSPTWLKTNGAVNGKGSLKGQPGDIYHQTWARYFVKFLDAYAEHKLQFWAVTAENEPSAGLLSGYPFQCLGFTPEHQRDFIARDLGPTLANSTHHNVRLLMLDDQRLLLPHWAKVVLTDPEAAKYVHGIAVHWYLDFLAPAKATLGETHRLFPNTMLFASEACVGSKFWEQSVRLGSWDRGMQYSHSIITNLLYHVVGWTDWNLALNPEGGPNWVRNFVDSPIIVDITADTFYKQPMFYHLGHFSKFIPEGSQRVGLVASQKNDLDAVALMHPDGSAVVVVLNRSSKDVPLTIKDPAVGFLETISPGYSIHTYLWRRQ
Take B2: the binding result in assay [1] is recorded as “binds”.

B3: AKA GCase mutant (TKD sequence, amino acids 407-409, changed to AKA) (enzyme)
chain: ARPCIPKSFGYSSVVCVCNATYCDSFDPPTFPALGTFSRYESTRSGRRMELSMGPIQANHTGTGLLLTLQPEQKFQKVKGFGGAMTDAAALNILALSPPAQNLLLKSYFSEEGIGYNIIRVPMASCDFSIRTYTYADTPDDFQLHNFSLPEEDTKLKIPLIHRALQLAQRPVSLLASPWTSPTWLKTNGAVNGKGSLKGQPGDIYHQTWARYFVKFLDAYAEHKLQFWAVTAENEPSAGLLSGYPFQCLGFTPEHQRDFIARDLGPTLANSTHHNVRLLMLDDQRLLLPHWAKVVLTDPEAAKYVHGIAVHWYLDFLAPAKATLGETHRLFPNTMLFASEACVGSKFWEQSVRLGSWDRGMQYSHSIITNLLYHVVGWTDWNLALNPEGGPNWVRNFVDSPIIVDIAKATFYKQPMFYHLGHFSKFIPEGSQRVGLVASQKNDLDAVALMHPDGSAVVVVLNRSSKDVPLTIKDPAVGFLETISPGYSIHTYLWRRQ
As for B3, the binding entry in assay [3] is “binds”.
